Measurements from PubChem BioAssay (NCI).
Shown are results outside the selection of hits, which stands elsewhere. Calls of active or inactive are those of the source. Rule as the data show it: active = growth inhibition above about 70%; inactive = the rest.

Tests used:
[1] = NCI Yeast Anticancer Drug Screen. Data for the rad52 strain (AID 147);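 also: 0% = growth of vehicle-treated control cultures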; conditions: S. cerevisiae rad52 mutant growth inhibition, stronger effect = higher value
In short: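 Screen used a yeast mutant impaired in DNA repair. After compound exposure, growth was measured. Values reflect inhibition compared with vehicle-treated cells.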

[2] = NCI Yeast Anticancer Drug Screen. Data for the wt1 strain (AID 149);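 also: 0% = growth of vehicle-treated wt1 cultures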; conditions: S. cerevisiae wt1 strain (SPY 50644) growth inhibition, stronger effect = higher value
In short: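 The wt1 strain was treated with compounds, and growth was compared with vehicle-treated cultures to give inhibition.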

[3] = NCI Yeast Anticancer Drug Screen. Data for the rad50EPP+ strain (AID 151);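 also: 0% = growth of vehicle-treated control cultures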; conditions: S. cerevisiae rad50 mutant strain, stronger effect = higher value
In short: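 Exposing the rad50EPP+ strain to each compound, growth was compared with vehicle-only cultures to give inhibition.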

[4] = NCI Yeast Anticancer Drug Screen. Data for the mgt1 strain (AID 153); conditions: S. cerevisiae mgt1 mutant growth inhibition, stronger effect = higher value
In short: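 Genetically defined yeast (mgt1) treated with compound; inhibition of growth expressed against vehicle-treated controls.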

[5] = NCI Yeast Anticancer Drug Screen. Data for the rad14 strain (AID 159);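 also: 0% = growth of vehicle-treated control cultures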; conditions: S. cerevisiae rad14 strain growth inhibition, stronger effect = higher value
In short: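 Readout: yeast growth inhibition, referenced to vehicle-only cultures. Strain bears a defined alteration in DNA damage repair.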

[6] = NCI Yeast Anticancer Drug Screen. Data for the CLN2oe strain (AID 163);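 also: 0% = growth of vehicle-only control cultures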; conditions: S. cerevisiae CLN2oe strain, stronger effect = higher value
In short: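 Values reflect how much compound exposure reduced yeast growth, referenced to vehicle-exposed cells. Assay organism is a strain with a defined genetic change affecting cell-cycle control.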

[7] = NCI Yeast Anticancer Drug Screen. Data for the wt2 strain (AID 169);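 also: 0% = growth of vehicle-treated yeast cultures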; conditions: S. cerevisiae wt2 strain growth inhibition, stronger effect = higher value
In short: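 Values express reduction in yeast growth under compound treatment, referenced to vehicle-treated cells.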

[8] = NCI Yeast Anticancer Drug Screen. Data for the mlh1 strain (AID 171);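 also: 0% = growth of vehicle-treated control cultures of the same strain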; conditions: S. cerevisiae mlh1 strain growth inhibition, stronger effect = higher value
In short: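 Steps: expose the defined-mutant yeast strain to compound; expose a parallel culture to vehicle; measure growth; express compound effect as inhibition relative to the vehicle culture.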

[9] = NCI Yeast Anticancer Drug Screen. Data for the sgs1 strain (AID 173);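 also: 0% = growth of vehicle-only control cultures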; conditions: S. cerevisiae sgs1 mutant, stronger effect = higher value
In short: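 Treat defined-mutant yeast with compound; measure growth; calculate inhibition relative to vehicle-treated cells.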

[10] = NCI Yeast Anticancer Drug Screen. Data for the rad18 strain (AID 177); conditions: S. cerevisiae rad18 mutant growth inhibition, stronger effect = higher value
In short: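 A genetically defined yeast mutant impaired in DNA damage repair was treated with test compounds, then its growth was measured against cultures receiving vehicle alone.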

Measured: growth inhibition

COc1cccc(/C=C2/S/C(=N/Nc3nc(C)c(C(C)=O)s3)NC2=O)c1O
inactive: [1]; at 1.2 µM 0% | [1]; at 3.7 µM 3% | [1]; at 11.0 µM 7% | [1]; at 33.0 µM 10% | [1]; at 100.0 µM 32% | [2]; at 1.2 µM 1% | [2]; at 3.7 µM 3% | [2]; at 11.0 µM 4% | [2]; at 33.0 µM 12% | [2]; at 100.0 µM 22% | [3]; at 1.2 µM -3% | [3]; at 3.7 µM -3% | [3]; at 11.0 µM 12% | [3]; at 33.0 µM 33% | [3]; at 100.0 µM 51% | [4]; at 1.2 µM -1% | [4]; at 3.7 µM -2% | [4]; at 11.0 µM 2% | [4]; at 33.0 µM 1% | [4]; at 100.0 µM 56% | [5]; at 1.2 µM 1% | [5]; at 3.7 µM -1% | [5]; at 11.0 µM 8% | [5]; at 33.0 µM 17% | [5]; at 100.0 µM 42% | [6]; at 1.2 µM -5% | [6]; at 3.7 µM -7% | [6]; at 11.0 µM -5% | [6]; at 33.0 µM 10% | [6]; at 100.0 µM 20% | [7]; at 1.2 µM -1% | [7]; at 3.7 µM 0% | [7]; at 11.0 µM 5% | [7]; at 33.0 µM 17% | [7]; at 100.0 µM 45% | [8]; at 1.2 µM -1% | [8]; at 3.7 µM 1% | [8]; at 11.0 µM 6% | [8]; at 33.0 µM 30% | [8]; at 100.0 µM 52% | [9]; at 1.2 µM 2% | [9]; at 3.7 µM 6% | [9]; at 11.0 µM 17% | [9]; at 33.0 µM 47% | [9]; at 100.0 µM 63% | [10]; at 1.2 µM -2% | [10]; at 3.7 µM 0% | [10]; at 11.0 µM 5% | [10]; at 33.0 µM 15% | [10]; at 100.0 µM 38%

Nc1nc(N)c2[nH]c(CNc3ccc(C(=O)O)cc3)nc2n1
inactive: [1]; at 1.2 µM -2% | [1]; at 3.7 µM -2% | [1]; at 11.0 µM -2% | [1]; at 33.0 µM -4% | [1]; at 100.0 µM -12% | [2]; at 1.2 µM 0% | [2]; at 3.7 µM 0% | [2]; at 11.0 µM 0% | [2]; at 33.0 µM -3% | [2]; at 100.0 µM -1% | [3]; at 1.2 µM -5% | [3]; at 3.7 µM -2% | [3]; at 11.0 µM -1% | [3]; at 33.0 µM -2% | [3]; at 100.0 µM -4% | [4]; at 1.2 µM 1% | [4]; at 3.7 µM -1% | [4]; at 11.0 µM -1% | [4]; at 33.0 µM -1% | [4]; at 100.0 µM -3% | [5]; at 1.2 µM -1% | [5]; at 3.7 µM -3% | [5]; at 11.0 µM -4% | [5]; at 33.0 µM -9% | [5]; at 100.0 µM -3% | [6]; at 1.2 µM -2% | [6]; at 3.7 µM 1% | [6]; at 11.0 µM 0% | [6]; at 33.0 µM 1% | [6]; at 100.0 µM -1% | [7]; at 1.2 µM -1% | [7]; at 3.7 µM -1% | [7]; at 11.0 µM -1% | [7]; at 33.0 µM -2% | [7]; at 100.0 µM -7% | [8]; at 1.2 µM 0% | [8]; at 3.7 µM 1% | [8]; at 11.0 µM 2% | [8]; at 33.0 µM -6% | [8]; at 100.0 µM -3% | [9]; at 1.2 µM -2% | [9]; at 3.7 µM 1% | [9]; at 11.0 µM 0% | [9]; at 33.0 µM -2% | [9]; at 100.0 µM -8% | [10]; at 1.2 µM -4% | [10]; at 3.7 µM -5% | [10]; at 11.0 µM 0% | [10]; at 33.0 µM -13% | [10]; at 100.0 µM -19%

O=C1Nc2ccccc2NC1C1OC(c2ccccc2)=CC1=O (stereo not given)
inactive: [1]; at 1.2 µM 18% | [1]; at 3.7 µM 34% | [1]; at 11.0 µM 32% | [1]; at 33.0 µM 19% | [1]; at 100.0 µM 20% | [3]; at 1.2 µM 42% | [3]; at 3.7 µM 37% | [3]; at 11.0 µM 37% | [3]; at 33.0 µM 22% | [3]; at 100.0 µM 20% | [5]; at 1.2 µM 18% | [5]; at 3.7 µM 23% | [5]; at 11.0 µM 20% | [5]; at 33.0 µM 18% | [5]; at 100.0 µM 14% | [6]; at 1.2 µM -15% | [6]; at 3.7 µM 1% | [6]; at 11.0 µM -9% | [6]; at 33.0 µM 5% | [6]; at 100.0 µM 23% | [7]; at 1.2 µM -18% | [7]; at 3.7 µM -11% | [7]; at 11.0 µM -11% | [7]; at 33.0 µM -8% | [7]; at 100.0 µM -2% | [8]; at 1.2 µM 32% | [8]; at 3.7 µM 39% | [8]; at 11.0 µM 44% | [8]; at 33.0 µM 1% | [8]; at 100.0 µM 36% | [9]; at 1.2 µM 14% | [9]; at 3.7 µM 23% | [9]; at 11.0 µM 29% | [9]; at 33.0 µM 30% | [9]; at 100.0 µM 18% | [10]; at 1.2 µM 26% | [10]; at 3.7 µM 23% | [10]; at 11.0 µM 17% | [10]; at 33.0 µM 24% | [10]; at 100.0 µM 16%

CCOC1c2cc3c(cc2C(c2cc(OC)c(OC)c(OC)c2)C2C(=O)OCC12)OCO3 (stereo not given)
inactive: [1]; at 1.2 µM -1% | [1]; at 3.7 µM -2% | [1]; at 11.0 µM -3% | [1]; at 33.0 µM -5% | [1]; at 100.0 µM 21% | [3]; at 1.2 µM -5% | [3]; at 3.7 µM 0% | [3]; at 11.0 µM -3% | [3]; at 33.0 µM 2% | [3]; at 100.0 µM 2% | [4]; at 1.2 µM -1% | [4]; at 3.7 µM 2% | [4]; at 11.0 µM -1% | [4]; at 33.0 µM -5% | [4]; at 100.0 µM 32% | [5]; at 1.2 µM -4% | [5]; at 3.7 µM -2% | [5]; at 11.0 µM -2% | [5]; at 33.0 µM -7% | [5]; at 100.0 µM 25% | [6]; at 1.2 µM -14% | [6]; at 3.7 µM -12% | [6]; at 11.0 µM -17% | [6]; at 33.0 µM -22% | [6]; at 100.0 µM 42% | [7]; at 1.2 µM -7% | [7]; at 3.7 µM -4% | [7]; at 11.0 µM -3% | [7]; at 33.0 µM -3% | [7]; at 100.0 µM 39% | [8]; at 1.2 µM -2% | [8]; at 3.7 µM -4% | [8]; at 11.0 µM -3% | [8]; at 33.0 µM -2% | [8]; at 100.0 µM 54% | [9]; at 1.2 µM -2% | [9]; at 3.7 µM -2% | [9]; at 11.0 µM -3% | [9]; at 33.0 µM -2% | [9]; at 100.0 µM 51% | [10]; at 1.2 µM -2% | [10]; at 3.7 µM -1% | [10]; at 11.0 µM 4% | [10]; at 33.0 µM -1% | [10]; at 100.0 µM 37%
